Assay results from PubChem BioAssay AID493014 (National Center for Advancing Translational Sciences (NCATS), 2011).
The other results are listed elsewhere or left out. These are further read-outs of the screen, such as a control signal, another cell line or another target. No call is given for them. Compounds called inactive in the main read-out are mostly missing here. Words in brackets tell the shape of the fitted curve; partial curves, single points and poor fits give uncertain potencies.

Assay: qHTS Assay to Find Inhibitors of Chronic Active B-Cell Receptor Signaling
Details: ABC-DLBCL IkBa-CBG/CBR reporter, luminescence ratio (green luciferase fused to IkBa over red control in TMD8 lymphoma cells), 4 h
Method in brief: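 TMD8 ABC-DLBCL cells carrying doxycycline-inducible green luciferase fused to IkappaBalpha plus unfused red luciferase were exposed to compounds (up to 46 uM) for 4 hrs at 37C. Activity came from the overlap-corrected green/red luminescence ratio.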

[1] = measured here: CBR red luminescence, cell number
[2] = measured here: IkBa-CBG green luminescence

Structure (SMILES)	AC50 [1]	AC50 [2]
C=C(C)c1cccc(C(C)(C)NC(=O)Nc2cc(C)ccn2)c1	18.4 µM [falling, single point]	
CCN1CCCC1CNC(=O)c1cc2cc(OC)c(OC)cc2[nH]1 (stereo not drawn)	10 µM [rising, partial curve, poor fit]	
Cc1ccc(C(=O)N/C(=C/C=C/c2ccccc2)C(=O)NCc2ccco2)cc1	31.6 µM [rising, single point]	
Cc1ccc(NC(=O)CCNS(=O)(=O)c2ccc(Br)cc2)cc1S(=O)(=O)N1CCOCC1	3.66 µM [rising, full curve, poor fit]	
NC(=O)CNC(=O)[C@@H]1CC2(CC(c3cccc(Br)c3)=NO2)CN1C(=O)c1ccc(Br)cc1 (stereo partly drawn)	35.5 µM [falling, single point]	
O=C(CC1OC(=O)c2ccccc21)Nc1cccc(S(=O)(=O)N2CCCCCC2)c1 (stereo not drawn)	15.8 µM [falling, single point]	
COc1ccc(C/C(O)=C(\C#N)c2nc3ccccc3s2)cc1	0.461 µM [falling, partial curve, poor fit]	
NCCNC(=O)c1c(O)c2cccc3c2n(c1=O)CCC3	17.8 µM [falling, partial curve]	
N/C(Cn1cncn1)=N\OC(=O)c1ccc(Cl)cc1Cl	35.5 µM [rising, single point]	
CC(=O)c1c(C)[nH]c(C(=O)Nc2cccc(S(=O)(=O)N3CCCC3)c2)c1C		20.6 µM [falling, single point]
O=C(/C=C/c1ccco1)c1ccc(O)cc1		11.2 µM [rising, partial curve, poor fit]
Cc1nn(-c2ccccc2)c(Cl)c1/C=N/NC(=O)c1ccc(NS(=O)(=O)c2cccs2)cc1	17.8 µM [falling, partial curve, poor fit]	
O=[N+]([O-])c1cnc2nc(-c3ccncc3)nn2c1O	2.82 µM [falling, full curve]	
CS(=O)(=O)N1CCN(c2ccccc2NC(=O)Nc2cccc(Cl)c2)CC1	22.4 µM [falling, single point]	
CC(C)CNC(=O)C(=O)NCC1OCCCN1S(=O)(=O)c1ccc2c(c1)OCCO2 (stereo not drawn)	0.501 µM [rising, full curve, poor fit]	
CN(c1ccccc1)S(=O)(=O)c1ccc(C(=O)Nc2nnc(C3=COCCO3)o2)cc1	28.2 µM [falling, single point]	
O=C(Oc1ccc(-c2cnc3ccccc3n2)cc1)c1ccco1	2.51 µM [rising, full curve]	12.6 µM [rising, single point]
CCC(C)Sc1cc(C(F)(F)F)c(C(=O)Nc2ccc(Cl)cc2)cn1 (stereo not drawn)	15.8 µM [falling, single point]	
CC(C)CN(/C=N/c1sc2c(c1C#N)CCCCC2)CC(C)C	25.9 µM [rising, partial curve, poor fit]	
C=CCn1c(-c2ccccc2)c[nH]c1=S	29.1 µM [falling, single point]	29.1 µM [falling, single point]
O=C(CSc1nnc(CNC(=O)c2c(F)cccc2Cl)o1)Nc1ccccc1	29.1 µM [rising, single point]	

Structure (SMILES)	AC50 [1]	AC50 [2]
Nc1c(-c2cccc(Cl)c2)cnn1-c1cccc(C(F)(F)F)c1	35.5 µM [rising, single point]	
COc1ccc(OC)c(CNc2sc3c(c2C(=O)Nc2cc(OC)ccc2OC)CCCC3)c1	1.12 µM [rising, full curve, poor fit]	
N#C/C(=C\c1c[nH]c2ccccc12)C(=O)NC1CC1	12.6 µM [falling, single point]	
COc1cc(/C=N/NC(=O)c2sc3nc(C)cc(C)c3c2N)ccc1O	4.47 µM [falling, partial curve]	
Oc1[nH]c2ccccc2c1C=Nc1ccc2c(c1)OCO2	9.2 µM [falling, partial curve, poor fit]	
Cc1cccc(C)c1NC(=O)CSCCO	35.5 µM [rising, single point]	
CC(C)Cc1nnc(NC(=O)CC(C)c2ccccc2)s1 (stereo not drawn)	10 µM [rising, partial curve]	
CC1CN(C(=O)c2ccc(Oc3ccccc3)cc2)CC(C)O1 (stereo not drawn)	17.8 µM [falling, partial curve, poor fit]	
CC(=O)NC(Cc1c[nH]c2ccccc12)C(=O)OCC(=O)N1CCCCCC1 (stereo not drawn)	14.1 µM [rising, single point]	
CCOc1ccccc1-n1nnnc1SCC(=O)NC(=O)Nc1ccc2c(c1)OCCO2	29.1 µM [falling, single point]	
Cc1ccc(N=Nc2c(O)ccc3n[nH]nc23)cc1	11.2 µM [falling, single point]	0.224 µM [rising, full curve, poor fit]
CC1(C)C(=S)N(Cc2ccccc2)c2ccccc21	31.6 µM [rising, single point]	
COc1cc(NC(=O)c2cc(-c3ccccc3)on2)cc(OC)c1OC	6.31 µM [falling, partial curve, poor fit]	
CCOC(=O)Cc1csc(NC(=O)c2cc(C)c(C)s2)n1	13 µM [falling, partial curve, poor fit]	
CCC(=O)N1CCc2cc(Br)cc(S(=O)(=O)NCC3CCCN3CC)c21 (stereo not drawn)	0.00461 µM [rising, full curve, poor fit]	
O=c1c2ccccc2sc2nc(C3CCCCC3)n(Cc3ccco3)c(=O)c12	0.164 µM [falling, full curve, poor fit]	
CCOC(=O)C1=C(C)C/C(=N\NC(=O)c2ccccc2O)CC1	2 µM [falling, full curve]	
CCCCOC(=O)c1sc2nc(C)cc(C)c2c1N	1.12 µM [rising, partial curve, poor fit]	
O=C(CN1C(=O)NC2(CCCC2)C1=O)Nc1ccc(F)cc1	29.1 µM [falling, single point]	32.6 µM [rising, partial curve, poor fit]
COc1ccc(S(=O)(=O)N(CCc2ccccc2)CC(=O)O)cc1Cl	1.64 µM [rising, partial curve, poor fit]	
CCOc1ccc(NC(=O)/C(C#N)=C/c2ccc(N3CCCC3)c(C)c2)cc1	0.411 µM [rising, partial curve, poor fit]	

Not a retest: an excerpt of the list.
Structure (SMILES)	AC50 [1]	AC50 [2]
COc1ccc(OC)c(CNc2sc3c(c2C(=O)Nc2cc(OC)ccc2OC)CCCC3)c1	1.12 µM [rising, full curve, poor fit]	
N#C/C(=C\c1c[nH]c2ccccc12)C(=O)NC1CC1	12.6 µM [falling, single point]	
COc1cc(/C=N/NC(=O)c2sc3nc(C)cc(C)c3c2N)ccc1O	4.47 µM [falling, partial curve]	

(more compounds)

Structure (SMILES)	AC50 [1]	AC50 [2]
Cc1ccc(NC(=O)c2cncc(Br)c2)nc1	35.5 µM [falling, single point]	
O=C(CCCNc1ccccc1)N/N=C/c1cccs1	22.4 µM [falling, partial curve, poor fit]	
Cc1ccc(N2CCN(C(=S)c3ccc(-c4ccccc4[N+](=O)[O-])o3)CC2)cc1	35.5 µM [falling, single point]	17.8 µM [rising, partial curve, poor fit]
COc1cc(C(=O)N[C@H](C(=O)NC2CCCc3ccccc32)C(C)C)cc(OC)c1OC (stereo partly drawn)	9.2 µM [rising, partial curve, poor fit]	
CCCN(CC(=O)Nc1ccccc1C)C(=O)CCl	4.47 µM [falling, full curve, poor fit]	
COC(=O)c1ccccc1NC(=O)CN1CCC(NC(=O)c2ccccc2C)CC1	0.794 µM [rising, full curve, poor fit]	
COc1cc(NC(=O)COC(=O)CNC(=O)C2CCCCC2)cc(OC)c1	11.6 µM [rising, partial curve, poor fit]	
Cc1nnc(NC(=O)CSc2nnc(CCc3nc4ccccc4[nH]3)n2C)s1	5.01 µM [falling, single point]	
CSc1ccc(C2N=C(c3ccccc3)NO2)cc1 (stereo not drawn)	12.6 µM [falling, single point]	
COc1ccc(-n2c(SC(CN3CCCCC3)CN3CCCC3=O)nc3ccccc3c2=O)cc1 (stereo not drawn)	35.5 µM [falling, single point]	
O=C(CN1c2cccc3cccc(c23)S1(=O)=O)N1CCOCC1	0.891 µM [rising, full curve, poor fit]	
O=C(O)c1ccc2ncsc2c1	10 µM [falling, partial curve]	
Cc1cc(C)c(C(=O)OCC(=O)NCc2cccs2)c(C)c1	35.5 µM [falling, single point]	
CC(C)c1ccc(NC(=O)C2=CC=CN3CCS(=O)(=O)N=C23)cc1	0.731 µM [rising, full curve]	
O=C(CSc1nnc(CNC(=O)c2ccco2)o1)Nc1nc2ccccc2s1	15.8 µM [falling, single point]	35.5 µM [falling, partial curve, poor fit]
O=C1CCN(S(=O)(=O)c2cc(C(F)(F)F)ccc2Cl)CC1	16.4 µM [falling, partial curve, poor fit]	
CC(C)C[C@H](NC(=O)c1nc[nH]c1C(=O)NCCNC(=O)OC(C)(C)C)C(=O)CNCCNC(=O)c1[nH]cnc1C(=O)N[C@@H](C)C(=O)OC(C)(C)C	0.13 µM [rising, full curve, poor fit]	
COc1ccc(CNC(=O)Nc2cc(C)cc(C)c2)cc1	28.2 µM [falling, single point]	
O=C(NCC1CCCO1)c1ccccc1-c1nc(-c2ccccc2Cl)no1 (stereo not drawn)	0.562 µM [rising, full curve, poor fit]	
Nc1ccc(S(=O)(=O)Nc2ccc(S(N)(=O)=O)cc2)cc1	0.116 µM [falling, full curve, poor fit]	
